No constants are given. Whether binding was seen depends on the method and setting. Binding seen in cells or lysates may run through a third protein. A result given as binding can be weak or reduced; the word gives no strength.
Target: AnOYE2 (Aspergillus niger CBS 513.88) (UniProt A5AB78)
Test: co-purification on Ni-NTA (IMAC); His6-tagged enzyme purified at a low temperature from the soluble fraction of E. coli BL21 (DE3) Arctic cells; Cpn60 found in the preparation

The chains behind the UniProt entries cited, without tags or fusion partners. Where a name states a change or a piece, a line headed by the entry shows the natural chain unless it says otherwise.
UniProt A5AB78: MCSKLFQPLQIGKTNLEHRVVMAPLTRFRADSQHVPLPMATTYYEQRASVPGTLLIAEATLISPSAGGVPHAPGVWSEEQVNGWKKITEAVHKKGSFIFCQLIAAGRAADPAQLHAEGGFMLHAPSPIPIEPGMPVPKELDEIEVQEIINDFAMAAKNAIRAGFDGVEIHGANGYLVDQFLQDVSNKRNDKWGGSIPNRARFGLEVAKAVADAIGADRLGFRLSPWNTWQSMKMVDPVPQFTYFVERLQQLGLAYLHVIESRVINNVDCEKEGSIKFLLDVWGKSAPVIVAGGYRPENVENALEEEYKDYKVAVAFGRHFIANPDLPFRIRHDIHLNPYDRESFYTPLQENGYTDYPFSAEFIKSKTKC
UniProt Q8KM30: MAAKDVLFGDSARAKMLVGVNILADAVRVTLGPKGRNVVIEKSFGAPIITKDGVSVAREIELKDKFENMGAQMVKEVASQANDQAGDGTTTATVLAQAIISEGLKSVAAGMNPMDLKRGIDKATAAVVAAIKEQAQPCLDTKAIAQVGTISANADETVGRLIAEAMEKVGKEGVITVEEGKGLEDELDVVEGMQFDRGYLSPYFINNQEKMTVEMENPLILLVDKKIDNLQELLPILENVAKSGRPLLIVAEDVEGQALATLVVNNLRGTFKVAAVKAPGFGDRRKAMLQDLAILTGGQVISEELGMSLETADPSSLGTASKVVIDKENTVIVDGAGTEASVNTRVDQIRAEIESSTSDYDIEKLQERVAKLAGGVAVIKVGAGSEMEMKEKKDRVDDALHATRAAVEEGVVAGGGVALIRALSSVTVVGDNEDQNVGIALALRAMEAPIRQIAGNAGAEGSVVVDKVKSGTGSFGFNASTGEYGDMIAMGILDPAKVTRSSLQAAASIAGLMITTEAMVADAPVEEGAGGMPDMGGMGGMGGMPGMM

binding: binds
Substance: chaperonin Cpn60 (from UniProt Q8KM30 1-548)

Reference: PMC8954901, “The Family Keeps on Growing: Four Novel Fungal OYEs Characterized” (International Journal of Molecular Sciences, 2022)
